# These are yes or no findings as the source states them, for the method shown. For some assays here: In cells and extracts the contact can be indirect. Some entries that bind do so weakly or less than the wild type.
# Experiments:
# [1] = target: 3xFLAG-tagged R919* human TRPA1 (human) (UniProt O75762); test: co-IP + SEC
# [2] = target: FLAG-MBP-WT human TRPA1 (human, UniProt O75762 1-1119); test: native gel or EMSA
# [3] = target: MBP-tagged WT human TRPA1 (human) (UniProt O75762); test: pull-down
# [4] = target: MBP-tagged R919* human TRPA1 (human) (UniProt O75762); test: pull-down
binding [1],binding [2],binding [3],binding [4],Molecule
binds,–,–,–,GFP-tagged R919* human TRPA1 (from UniProt O75762 1-918) (domain or fragment)
–,binds,–,–,Strep-MBP-WT human TRPA1 (from UniProt O75762 1-1119)
–,–,binds,binds,3xFLAG-tagged WT human TRPA1 (from UniProt O75762 1-1119)
–,–,binds,binds,3xFLAG-tagged R919* human TRPA1 (from UniProt O75762 1-918) (domain or fragment)
–,binds,–,–,"Strep-MBP-R919* human TRPA1 (domain or fragment, UniProt O75762 1-918, looked up) MKRSLRKMWRPGEKKEPQGVVYEDVPDDTEDFKESLKVVFEGSAYGLQNFNKQKKLKRCDDMDTFFLHYAAAEGQIELMEKITRDSSLEVLHEMDDYGNTPLHCAVEKNQIESVKFLLSRGANPNLRNFNMMAPLHIAVQGMNNEVMKVLLEHRTIDVNLEGENGNTAVIIACTTNNSEALQILLKKGAKPCKSNKWGCFPIHQAAFSGSKECMEIILRFGEEHGYSRQLHINFMNNGKATPLHLAVQNGDLEMIKMCLDNGAQIDPVEKGRCTAIHFAATQGATEIVKLMISSYSGSVDIVNTTDGCHETMLHRASLFDHHELADYLISVGADINKIDSEGRSPLILATASASWNIVNLLLSKGAQVDIKDNFGRNFLHLTVQQPYGLKNLRPEFMQMQQIKELVMDEDNDGCTPLHYACRQGGPGSVNNLLGFNVSIHSKSKDKKSPLHFAASYGRINTCQRLLQDISDTRLLNEGDLHGMTPLHLAAKNGHDKVVQLLLKKGALFLSDHNGWTALHHASMGGYTQTMKVILDTNLKCTDRLDEDGNTALHFAAREGHAKAVALLLSHNADIVLNKQQASFLHLALHNKRKEVVLTIIRSKRWDECLKIFSHNSPGNKCPITEMIEYLPECMKVLLDFCMLHSTEDKSCRDYYIEYNFKYLQCPLEFTKKTPTQDVIYEPLTALNAMVQNNRIELLNHPVCKEYLLMKWLAYGFRAHMMNLGSYCLGLIPMTILVVNIKPGMAFNSTGIINETSDHSEILDTTNSYLIKTCMILVFLSSIFGYCKEAGQIFQQKRNYFMDISNVLEWIIYTTGIIFVLPLFVEIPAHLQWQCGAIAVYFYWMNFLLYLQRFENCGIFIVMLEVILKTLLRSTVVFIFLLLAFGLSFYILLNLQDPFSSPLLSIIQTFSMMLGDINY"
binds,–,–,–,"GFP-tagged WT human TRPA1 (natural protein, UniProt O75762 1-1119, looked up) MKRSLRKMWRPGEKKEPQGVVYEDVPDDTEDFKESLKVVFEGSAYGLQNFNKQKKLKRCDDMDTFFLHYAAAEGQIELMEKITRDSSLEVLHEMDDYGNTPLHCAVEKNQIESVKFLLSRGANPNLRNFNMMAPLHIAVQGMNNEVMKVLLEHRTIDVNLEGENGNTAVIIACTTNNSEALQILLKKGAKPCKSNKWGCFPIHQAAFSGSKECMEIILRFGEEHGYSRQLHINFMNNGKATPLHLAVQNGDLEMIKMCLDNGAQIDPVEKGRCTAIHFAATQGATEIVKLMISSYSGSVDIVNTTDGCHETMLHRASLFDHHELADYLISVGADINKIDSEGRSPLILATASASWNIVNLLLSKGAQVDIKDNFGRNFLHLTVQQPYGLKNLRPEFMQMQQIKELVMDEDNDGCTPLHYACRQGGPGSVNNLLGFNVSIHSKSKDKKSPLHFAASYGRINTCQRLLQDISDTRLLNEGDLHGMTPLHLAAKNGHDKVVQLLLKKGALFLSDHNGWTALHHASMGGYTQTMKVILDTNLKCTDRLDEDGNTALHFAAREGHAKAVALLLSHNADIVLNKQQASFLHLALHNKRKEVVLTIIRSKRWDECLKIFSHNSPGNKCPITEMIEYLPECMKVLLDFCMLHSTEDKSCRDYYIEYNFKYLQCPLEFTKKTPTQDVIYEPLTALNAMVQNNRIELLNHPVCKEYLLMKWLAYGFRAHMMNLGSYCLGLIPMTILVVNIKPGMAFNSTGIINETSDHSEILDTTNSYLIKTCMILVFLSSIFGYCKEAGQIFQQKRNYFMDISNVLEWIIYTTGIIFVLPLFVEIPAHLQWQCGAIAVYFYWMNFLLYLQRFENCGIFIVMLEVILKTLLRSTVVFIFLLLAFGLSFYILLNLQDPFSSPLLSIIQTFSMMLGDINYRESFLEPYLRNELAHPVLSFAQLVSFTIFVPIVLMNLLIGLAVGDIAEVQKHASLKRIAMQVELHTSLEKKLPLWFLRKVDQKSTIVYPNKPRSGGMLFHIFCFLFCTGEIRQEIPNADKSLEMEILKQKYRLKDLTFLLEKQHELIKLIIQKMEIISETEDDDSHCSFQDRFKKEQMEQRNSRWNTVLRAVKAKTHHLEP"

# — paper doi:10.1101/2022.01.05.475133 (bioRxiv, 2022)
